One substance from paper PMC4442108 (Molecules, 2015) can be followed below.

Some peptides are written in HELM: one residue between dots, names in brackets for other building blocks, links after the first $.

This series in a line: peptide made by a vendor. The conditions noted are these: whole synthesis.

Consider “PEPTIDE1{G.G.G.Y.S.K.A.Q.K.A.Q.A.K.Q.A.K.Q.A.Q.K.A.Q.K.A.Q.A.K.Q.A.K.Q.A.Q.K.A.Q.K.A.Q.A.K.Q.A.K.Q}$$$$V2.0”, for which the “purity (crude or final not stated)” value is on record as about 80%.
